The target of this assay is human DIO1 (containing selenocysteine), Flag-tagged, expressed in COS7 cells (human) (UniProt P49895). As to the kind of experiment: SDS-PAGE with Western blot; membrane fractions of COS7 cells; anti-Flag blot; shows only an SDS-stable dimer. For orientation: A western blot detects proteins with antibodies after separation by electrophoresis.

These are yes or no findings as the source states them, for the method shown. Sequences can lack the tags named with a protein.

B1: human DIO1 (containing selenocysteine), Flag-tagged, expressed in COS7 cells (enzyme, UniProt P49895 1-249)
chain: MGLPQPGLWLKRLWVLLEVAVHVVVGKVLLILFPDRVKRNILAMGEKTGMTRNPHFSHDNWIPTFFSTQYFWFVLKVRWQRLEDTTELGGLAPNCPVVRLSGQRCNIWEFMQGNRPLVLNFGSCTUPSFMFKFDQFKRLIEDFSSIADFLVIYIEEAHASDGWAFKNNMDIRNHQNLQDRLQAAHLLLARSPQCPVVVDTMQNQSSQLYAALPERLYIIQEGRILYKGKSGPWNYNPEEVRAVLEKLHS
modifications: selenocysteine at 126
In the case of B1, the binding entry was “no binding”.

(Values after paper PMC9141512.)
